This passage reports AC50 results from PubChem BioAssay AID493014 (National Center for Advancing Translational Sciences (NCATS), 2011).

A short description of the test: qHTS Assay to Find Inhibitors of Chronic Active B-Cell Receptor Signaling. As to conditions: ABC-DLBCL IkBa-CBG/CBR reporter, luminescence ratio (green luciferase fused to IkBa over red control in TMD8 lymphoma cells), 4 h. The gist of the method:
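Compounds up to 46 uM were incubated four hours with TMD8 cells whose green CBG68 luciferase is fused to IkappaBalpha; red CBR luminescence normalised the signal, and concentration-effect curves were fitted to fusion, red and ratio data.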
(In general: Quantitative high-throughput screening tests each substance at several concentrations.)

[1] abbreviates: measured here: CBR red luminescence, cell number.
[2] abbreviates: measured here: IkBa-CBG green luminescence.

The other results are listed elsewhere or left out. The main result of the screen is listed elsewhere. These columns were measured beside it and carry no call. Most of these compounds were active or inconclusive in the main read-out, so they are no random draw. Words in brackets tell the shape of the fitted curve; partial curves, single points and poor fits give uncertain potencies.

Turning to `CCc1ccc(NC(=O)c2cnc(SC)nc2C)cc1`, the AC50 under setting [1] is 8.91 µM [falling, partial curve, poor fit].
For `O=S(=O)(c1cnc(Cl)c(Cl)c1)N1CCCc2ccccc21`, the AC50 is, setting by setting: under setting [1], 2.31 µM [falling, full curve]; under setting [2], 29.1 µM [falling, single point].
For the molecule `CNC(=O)CN(c1cc([N+](=O)[O-])ccc1OC)S(C)(=O)=O`, the AC50 under setting [1] was 2.06 µM [rising, full curve].
On the same count and under the same terms, as for `CN(c1nc2ccccc2nc1Cl)S(=O)(=O)c1ccccc1`, the figure is 0.562 µM [rising, partial curve, poor fit]; as for `CC(C)CNC(=O)c1cccc(NC(=O)CSc2ccc(Cl)cc2)c1`, 6.51 µM [rising, single point]; as for `O=C(Nc1ccc2oc(-c3ccncc3)nc2c1)c1cccs1`, 0.651 µM [rising, full curve, poor fit].
Regarding `O=C(CNC(=O)/C(=C\c1ccc(Br)cc1)NC(=O)c1ccccc1)OCc1ccccc1`, under setting [1], the AC50 is 0.82 µM [falling, full curve, poor fit].
On the same count and under the same terms, for `COC(=O)CN(n1cnnc1)S(=O)(=O)c1ccccc1Cl` the value was 2.06 µM [falling, single point].
`Cc1ccc2c(c1)C1CCCC3C1N2CC(=O)N3Cc1ccccc1` (configuration not stated): the AC50 by setting is: under setting [1], 8.2 µM [falling, partial curve, poor fit]; under setting [2], 2.59 µM [rising, partial curve, poor fit].
With `Cc1ccc(NC(=O)c2ccc3c(c2)OCCO3)cc1`, under setting [1], the AC50 was 11.2 µM [falling, partial curve, poor fit].
On to `COc1ccc(S(=O)(=O)N2Cc3ccccc3CC2C(=O)Nc2nccs2)cc1OC` (configuration not stated), for which, under setting [1], the AC50 is 1.84 µM [rising, partial curve, poor fit].
Still for that read-out and setting: for `N#Cc1ccccc1CSc1nc2ccc(NC(=O)c3ccccc3C(=O)O)cc2s1` the value was 35.5 µM [falling, single point].
Still for that read-out and setting: as for `O=C(Nc1ccc(F)cc1)c1sc2cc(C(F)(F)F)cnc2c1-c1cccs1`, the figure is 20.6 µM [rising, single point]; as for `Cc1cccc(Cn2c(N3CCN(c4ccccc4)CC3)nc3c2c(=O)n(C)c(=O)n3C)c1`, 6.31 µM [falling, single point]; as for `CC/C=C/C(=O)N1CC2(CC(c3cccc(NC(=O)COc4ccc(Cl)cc4)c3)=NO2)C[C@H]1C(N)=O` (some centres not stated), 31.6 µM [falling, single point].
Turning to `Cc1ccccc1Nc1nc(-c2cccnc2)nc2ccccc12`, the AC50 under setting [1] was 14.1 µM [falling, single point].
On the same count and under the same terms, as for `COC(=O)C1=C(C)NC(C)=C(C(=O)OC(C)C)C1c1cccc2nonc12` (configuration not stated), the figure is 12.6 µM [falling, single point]; as for `O=C(Nc1ccc(Cl)cc1)C1CCCN(C2=NS(=O)(=O)c3ccccc32)C1` (configuration not stated), 13 µM [rising, partial curve, poor fit]; as for `CCCc1cc(=O)n2[nH]c(-c3ccc(OC)cc3)nc2n1`, 5.17 µM [falling, partial curve].
As to `Cc1ccc(S(=O)(=O)N2C[C@@H]3[C@H]4CC[C@H](C4)[C@@H]3[C@@H](C)[C@@H]2c2ccn(Cc3ccccc3)c2)cc1`, under setting [1], the AC50 was 29.1 µM [falling, partial curve, poor fit].
Still for that read-out and setting: for `COc1ccc(NC(=O)NCc2ccc3c(c2)OCO3)cc1OC` the value was 11.2 µM [falling, single point].
Same read-out and setting: as for `Cc1cc(NC(=O)C(C)(C)C)no1`, the figure is 16.4 µM [rising, partial curve, poor fit]; as for `Nc1nc(-c2ccc(-c3ccccc3)cc2)cs1`, 12.6 µM [falling, partial curve, poor fit]; as for `CCOC(=O)C1CCN(S(=O)(=O)c2c[nH]c(=O)[nH]c2=O)CC1`, 20.6 µM [rising, partial curve, poor fit].
`O=C(CNCc1ccc(F)cc1)Nc1ccccc1[N+](=O)[O-]`: the AC50 under setting [1] is 0.224 µM [rising, full curve, poor fit].
As to `COc1ccc(N2C(S)=C(C#N)C(=O)NC23CCCCC3)cc1`, the AC50 under setting [2] is 12.6 µM [falling, single point].
As for `C/C(=N\Nc1ccc(Cl)c(C(=O)O)c1)c1ccc[nH]1`, under setting [1], the AC50 is 22.4 µM [falling, single point].
Same read-out and setting: for `CCOC(=O)[C@H]1[C@H]2COc3ccc(Cl)cc3[C@@H]2N2C(=O)c3ccccc3NC(=O)[C@@]12C` the value was 11.6 µM [falling, single point]; for `Cc1ccc(C(CC(=O)N2CCNCC2)c2ccccc2)c(O)c1C` (configuration not stated), 0.501 µM [rising, full curve, poor fit].
On the same count and under the same terms, for `O=c1ccc(OCCOc2ccccc2)nn1-c1ccccc1` the value was 7.31 µM [rising, partial curve]; for `O=C(CN1C(=O)/C(=C\c2ccccc2F)SC1=S)Nc1nc2ccccc2s1`, 16.4 µM [falling, single point]; for `OC(COc1ccc(CNCCc2ccc(C(F)(F)F)cc2)cc1)CN1CCCCC1` (configuration not stated), 12.6 µM [falling, partial curve, poor fit].
On the same count and under the same terms, as for `CN(C)S(=O)(=O)c1cccc(-c2nn(-c3ccccc3)cc2/C=C(/C#N)C(=O)NCc2ccco2)c1`, the figure is 0.731 µM [rising, full curve, poor fit]; as for `O=C(N/N=C/c1cccs1)c1ccccn1`, 12.6 µM [falling, partial curve]; as for `O=C(c1cccnc1)N1CCN(c2ccc3ccccc3n2)CC1`, 11.2 µM [rising, partial curve, poor fit].
Regarding `CS(=O)(=O)c1cnc2c(-c3ccsc3)cnn2c1N`, the AC50 is, setting by setting: under setting [1], 6.31 µM [rising, full curve]; under setting [2], 10 µM [falling, partial curve, poor fit].
On to `CCCc1ccc(-c2cc(C(=O)N/N=C/c3ccc([N+](=O)[O-])o3)c3ccccc3n2)cc1`, for which, under setting [1], the AC50 was 6.51 µM [rising, partial curve, poor fit].
Regarding `CCOC(=O)C1CCCN(Cc2cc(Br)ccc2OC)C1` (configuration not stated), the AC50 under setting [1] is 32.6 µM [rising, single point].
For the molecule `CC(C)(C)[C@H](N)C(=O)N[C@H]1CCC2C3CC=C4C[C@@H](O)CC[C@]4(C)C3CC[C@@]21C` (some centres not stated), the AC50 under setting [2] was 32.6 µM [rising, partial curve, poor fit].

By AC50 is commonly meant the concentration at which the activity in the assay is half-maximal.
